Measured values taken from ChEMBL document CHEMBL3124859, “Novel Peptidomimetic Hepatitis C Virus NS3/4A Protease Inhibitors Spanning the P2-P1' Region” (ACS Med Chem Lett, 2014).
Values after ≈ are worked out from the molar mass of the structure shown.

Test: Solubility of the compound in phosphate buffered saline at pH 7.4 after 1 hr by LC-MS/MS analysis
Conditions: buffer

SMILES | solubility at 1 h [µM]
C=Cc1cc(C(NC(=O)NC(C)(C)C)C(=O)Nc2cccc(C(=O)NS(=O)(=O)c3ccc(C(F)(F)F)cc3)c2)ccc1Oc1cc(OC)nc(-c2ccccc2)n1 (configuration not stated) | 31 (≈ 24.9 µg/mL)
C=Cc1cc(C(NC(=O)OC(C)(C)C)C(=O)Nc2ccc(C(=O)NS(=O)(=O)c3ccc(C(F)(F)F)cc3)cc2)ccc1Oc1cc(OC)nc(-c2ccccc2)n1 (configuration not stated) | 37 (≈ 29.7 µg/mL)
